At least one compound was matched to its structure with a doubt left.
System: dopamine metabolites HVA and DOPAC in the brain
Assay: Example 1: brain dopamine metabolites (HVA, DOPAC) in adrenalectomized rats with corticosterone or placebo pellets
Assay type: in vivo, rat
Settings: vehicle (placebo) pellet animals; haloperidol 1 mg/kg s.c. or clozapine 15 mg/kg s.c. two hours prior to sacrifice

Q: How did the “levels of HVA and DOPAC in the brain” value turn out when CN1CCN(C2=Nc3cc(Cl)ccc3Nc3ccccc32)CC1 [clozapine] was run?
A: elevated
